In the supplement of paper PMC9254222 one finds Renilla luciferase signal data, which are given here for 31 compounds.

The test system of this assay is HEK293T (UBE3A T485A transfected, BAR Wnt reporter). Nature of the assay: Renilla luciferase signal (cell health) relative to plate median (fold (linear ratio)); higher = higher Renilla signal. The following applies: 24 h. The method in brief: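 Using Fugene 6, HEK293T cells in white 384-well plates (4500 cells/well; DMEM, 10% FBS, 37°C, 5% CO2) were transfected with a BAR firefly luciferase Wnt reporter, TK-Renilla and an expression plasmid. After four hours, robots dosed the chemicals at 0.01–100 uM, and a Dual-Glo luciferase readout followed 24 h later. Per-plate median-centred firefly/Renilla ratios gave Wnt activity, while per-plate median-centred raw Renilla signals gave cell health. Four biological replicates were averaged.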

SMILES strings stand for the structures. In all, about 1,100 compounds were measured (“Renilla luciferase signal (cell health) relative to plate median”: median about 0.97, highest 2% from about 1.6 on). This is a selection; strong and weak results do not stand in their true shares.

Consider `O=C(O)c1ccccc1-n1cc(C(=O)O)c(=O)c2cc(Nc3c(F)cc(F)cc3Cl)c(Cl)cc21`, for which the Renilla luciferase signal runs as follows: (concentration: 0.1 uM) 0.808; (concentration: 1 uM) 0.866; (concentration: 10 uM) 0.845; (concentration: 100 uM) 1.14.
With `COC(=O)CC(=O)OC` [Dimethyl malonate], the Renilla luciferase signal is, setting by setting: (concentration: 0.1 uM) 1.17; (concentration: 1 uM) 1.21; (concentration: 10 uM) 1.04; (concentration: 100 uM) 1.24.
For `CCCCc1ccc2c(n1)[C@@H](c1ccc(OC)cc1C[C@H](C)C(=O)[O-])[C@H](C(=O)[O-])[C@H]2c1ccc2c(c1)OCO2.[Na+].[Na+]`, in that order: 0.914, 0.941, 0.924 and 0.813.
As for `O=c1[nH]cc(F)c(=O)[nH]1` [5-Fluorouracil], the Renilla luciferase signal is, setting by setting: (concentration: 0.1 uM) 1.08; (concentration: 1 uM) 1.13; (concentration: 10 uM) 0.346; (concentration: 100 uM) 0.231.
For `Sc1nc2ccccc2s1` [2-Mercaptobenzothiazole], in that order: 0.981, 0.791, 0.768 and 0.92.
For `CC(O)CO` (stereo not drawn) [1,2-Propylene glycol], in that order: 1.33, 1.18, 1.24 and 1.42.
For `COc1cc(-c2nc(NC(=O)c3cc4cc(C)cc(C)c4n3CC(=O)O)sc2CCC2CCCCC2)c(OC)cc1Cl.O=C(O)C(F)(F)F`, in that order: 1.03, 0.976, 0.93 and 0.0588.
Take `CC(=O)[C@@]1(O)CC[C@H]2[C@@H]3CCC4=CC(=O)CC[C@]4(C)[C@H]3CC[C@@]21C` [17alpha-Hydroxyprogesterone]: the Renilla luciferase signal (concentration: 0.1 uM) amounted to 1.03, the Renilla luciferase signal (concentration: 1 uM) was determined as 0.973, the Renilla luciferase signal (concentration: 10 uM) was determined as 0.95 and the Renilla luciferase signal (concentration: 100 uM) is 0.967.
In the case of `CCCCOCCOCCOCc1cc2c(cc1CCC)OCO2` [Piperonyl butoxide], the Renilla luciferase signal runs as follows: (concentration: 0.01 uM) 1.26; (concentration: 0.1 uM) 1.07; (concentration: 1 uM) 0.901; (concentration: 10 uM) 1.05; (concentration: 100 uM) 1.04.
Turning to `CCc1c2c(nc3ccc(OC(=O)N4CCC(N5CCCCC5)CC4)cc13)-c1cc3c(c(=O)n1C2)COC(=O)C3(O)CC` (stereo not drawn) [Irinotecan], the Renilla luciferase signal is, setting by setting: (concentration: 0.01 uM) 0.654; (concentration: 0.1 uM) 0.663; (concentration: 1 uM) 0.663; (concentration: 10 uM) 0.302; (concentration: 100 uM) 0.414.
Take `Oc1ccc2ccccc2c1` [2-Naphthalenol]: the Renilla luciferase signal is, setting by setting: (concentration: 0.1 uM) 1.11; (concentration: 1 uM) 1.1; (concentration: 10 uM) 1.14; (concentration: 100 uM) 0.666.
For `Cc1cc(SC2=C(O)C[C@@](CCc3ccc(N)cc3)(C(C)C)OC2=O)c(C(C)(C)C)cc1CO`, in that order: 0.926, 1.01, 0.952 and 0.324.
For `CCCCCCCCCCCCCCOS(=O)(=O)[O-].[Na+]` [Sodium myristyl sulfate], in that order: 1.07, 0.951, 1.15 and 0.42.
On to `Oc1ccc(C2COc3cc(O)ccc3C2)cc1` (stereo not drawn) [Equol], for which the Renilla luciferase signal reads like this: (concentration: 0.01 uM) 0.939; (concentration: 0.1 uM) 1.02; (concentration: 1 uM) 0.905; (concentration: 10 uM) 0.984; (concentration: 100 uM) 0.696.
Consider `NNC(=O)c1ccncc1` [Isoniazid], for which the Renilla luciferase signal reads like this: (concentration: 0.1 uM) 1.37; (concentration: 1 uM) 0.946; (concentration: 10 uM) 1.09; (concentration: 100 uM) 1.35.
As to `CCCCOC(=O)c1ccc(O)cc1` [Butylparaben], the Renilla luciferase signal was 0.848 (concentration: 0.1 uM), 0.85 (concentration: 1 uM), 0.756 (concentration: 10 uM) and 0.258 (concentration: 100 uM).
With `O=C(O)[C@H](O)[C@@H](O)C(=O)O` [L-Tartaric acid], the Renilla luciferase signal amounted to 0.852 (concentration: 0.1 uM), 0.869 (concentration: 1 uM), 0.956 (concentration: 10 uM) and 1.04 (concentration: 100 uM).
As for `CC1=CC(=O)CC(C)(C)C1` [Isophorone], the Renilla luciferase signal by setting is: (concentration: 0.1 uM) 1.01; (concentration: 1 uM) 1.07; (concentration: 10 uM) 1.05; (concentration: 100 uM) 1.17.
With `CC(=O)OCCOCCOCCOC(C)=O` [Triethylene glycol diacetate], the Renilla luciferase signal by setting is: (concentration: 0.1 uM) 0.81; (concentration: 1 uM) 0.816; (concentration: 10 uM) 0.908; (concentration: 100 uM) 1.08.
Turning to `CCC(C)OC(=O)N1CCCCC1CCO` (stereo not drawn) [Icaridin], the Renilla luciferase signal by setting is: (concentration: 0.01 uM) 0.749; (concentration: 0.1 uM) 0.727; (concentration: 1 uM) 0.873; (concentration: 10 uM) 0.824; (concentration: 100 uM) 1.16.
Take `CC(C)(C)c1ccccc1` [tert-Butylbenzene]: the Renilla luciferase signal came out at 1.02 (concentration: 0.1 uM), 1.02 (concentration: 1 uM), 1.12 (concentration: 10 uM) and 1.13 (concentration: 100 uM).
For `COC(=O)c1ccccc1C(=O)O` [Monomethyl phthalate], the Renilla luciferase signal is 0.97 (concentration: 0.01 uM); 0.982 (concentration: 0.1 uM); 0.926 (concentration: 1 uM); 1.04 (concentration: 10 uM); 1.34 (concentration: 100 uM).
As for `C/C=C/c1ccc(OC)cc1` [(E)-Anethole], the Renilla luciferase signal is, setting by setting: (concentration: 0.1 uM) 0.769; (concentration: 1 uM) 0.707; (concentration: 10 uM) 0.82; (concentration: 100 uM) 0.978.
As for `COc1ccc(OC(F)(F)F)cc1CN[C@H]1CCCN[C@H]1c1ccccc1`, the Renilla luciferase signal worked out at 0.933 (concentration: 0.1 uM), 0.875 (concentration: 1 uM), 0.559 (concentration: 10 uM) and 0.0333 (concentration: 100 uM).
Consider `CC12CCC3c4ccc(O)cc4CCC3C1CCC2O` (stereo not drawn) [17-beta-estradiol], for which the Renilla luciferase signal is, setting by setting: (concentration: 0.01 uM) 0.952; (concentration: 0.1 uM) 0.917; (concentration: 1 uM) 0.959; (concentration: 10 uM) 1.23; (concentration: 100 uM) 0.0623.
For `Cc1nn(C)c(Oc2ccccc2)c1C=NOCc1ccc(C(=O)OC(C)(C)C)cc1` [Fenpyroximate (Z,E)], in that order: 1.31, 1.14, 0.78, 0.334 and 0.0803.
Consider `C=CCc1ccc(OC)c(OC)c1` [Methyleugenol], for which the Renilla luciferase signal runs as follows: (concentration: 0.1 uM) 0.897; (concentration: 1 uM) 0.832; (concentration: 10 uM) 0.797; (concentration: 100 uM) 0.924.
Regarding `O=C(O)c1cccnc1` [Nicotinic acid], the Renilla luciferase signal by setting is: (concentration: 0.1 uM) 1.13; (concentration: 1 uM) 1.2; (concentration: 10 uM) 1.18; (concentration: 100 uM) 1.48.
On to `CCOC(=O)c1ccc([C@H]2CC[C@H](NC[C@H](O)COc3ccc(O)c(NS(C)(=O)=O)c3)CC2)cc1.Cl`, for which the Renilla luciferase signal (concentration: 0.1 uM) turned out to be 0.973, the Renilla luciferase signal (concentration: 1 uM) came to 0.878, the Renilla luciferase signal (concentration: 10 uM) was 0.753 and the Renilla luciferase signal (concentration: 100 uM) came out at 0.0262.
For `CCCCCCCCCCCO` [1-Undecanol], in that order: 1.03, 1.2, 1.09 and 1.34.
Take `CC(C)c1cccc(C(C)C)c1` [1,3-Diisopropylbenzene]: the Renilla luciferase signal (concentration: 100 uM) came out at 1.7.
